From US4305872A, “Polypeptide derivatives” (priority 1979, dated 1981)
Not every detail of the peptide structures is certain; ends, links or a residue may be inferred.

How the values were obtained:
TRH releasing activity = test: Bioassay of TRH-Diazomethylketone / TRH-Chloromethylketone: 125I release in rats challenged with TRH; assay type: in vivo, Long-Evans male rats; conditions: 40 μgm analogue into tail vein 2 h after TRH, blood 1 h later; FIG. 1 / FIG. 2
Serum TSH level = test: 6 Point Parallel Line Assay, serum TSH level after inhibitor then TRH; assay type: in vivo; conditions: inhibitor 80 gm (so in the source) in 0.25 ml jugular vein, blood at 1 hr
Experimental: (§1) 6 Point Parallel Line Assay Design:
(§2) 3 sample, 3 standard samples
(§3) Responses expressed in (Ng/ml)
(§4) Animals challenged with peptide derivative dissolved in 0.85% NaCl.
(§5) Total Injection Volume: 0.25 ml
(§6) Anatomical Site of Injection: Jugular vein
(§7) Samples obtained by subjecting animal to ether anesthesia, and sacrificing animal.
(§8) Each animal was injected via jugular vein 0.25 ml of peptide derivative: to insure sample was injected into vein, the syringe plunger was gently retracted, if blood could be withdrawn, then the sample was injected. Following injection, the syringe was rinsed with blood and injected. 1/2-hour following injection of the peptide derivative, using the same procedure, a TRH dose-response curve was made using the same injection technique.
(§9) 0 time--injection of TRH derivative (80 ugm)
(§10) 1/2 hr.--injection of TRH (4, 40, and 80 ugm)
(§11) 1 hrs.--blood sample collected

Serum Prolactin Level = test: 6 Point Parallel Line Assay, serum prolactin level after inhibitor then TRH; assay type: in vivo; conditions: inhibitor 80 μg in 0.25 ml jugular vein, blood at 1 hr
Experimental: as §1, §2, §3, §4, §5, §6, §7, §8, §9, §10, §11

[1] = FIRST EXPERIMENT, 1/2 hr later TRH 4 μg
[2] = FIRST EXPERIMENT, 1/2 hr later TRH 40 μg
[3] = FIRST EXPERIMENT, 1/2 hr later TRH 80 μg
[4] = SECOND EXPERIMENT, 1/2 hr later TRH 4 μg
[5] = SECOND EXPERIMENT, 1/2 hr later TRH 40 μg
[6] = SECOND EXPERIMENT, 1/2 hr later TRH 80 μg

## [N-]=[N+]=CC(=O)[C@@H]1CCCN1C(=O)[C@H](Cc1c[nH]cn1)NC(=O)[C@@H]1CCC(=O)N1 [TRH-Diazomethylketone]
TRH releasing activity
  inhibition of TRH releasing activity (125I release): dramatic inhibition in releasing activity by TRH
Serum TSH level; [1]
  Serum TSH level: 305 ng/mL
Serum TSH level; [2]
  Serum TSH level: 200 ng/mL
Serum TSH level; [3]
  Serum TSH level: 566 ng/mL
Serum TSH level; [4]
  Serum TSH level: 305 ng/mL
Serum TSH level; [5]
  Serum TSH level: 200 ng/mL
Serum TSH level; [6]
  Serum TSH level: 566 ng/mL
Serum Prolactin Level; [1]
  Serum Prolactin Level: 27 ng/mL
Serum Prolactin Level; [2]
  Serum Prolactin Level: 65 ng/mL
Serum Prolactin Level; [3]
  Serum Prolactin Level: 31 ng/mL
Serum Prolactin Level; [4]
  Serum Prolactin Level: 39 ng/mL
Serum Prolactin Level; [5]
  Serum Prolactin Level: 56 ng/mL
Serum Prolactin Level; [6]
  Serum Prolactin Level: 108 ng/mL
